Data taken from patent publication US8063012B2, “Neuroprotective peptide inhibitors of AP-1 signaling and uses therefor” (Phylogica Limited, priority 2006, dated 2011).
At least one peptide structure holds a part that was inferred or is arguable (an end, a ring closure or a residue). Non-standard residues stand in square brackets, D forms with d. Residues, ends and D or L forms follow the SMILES beside them.

Test system: hippocampal CA1 neurons
Experiment: Rat model of global cerebral ischemia, hippocampal CA1 neuronal survival
Assay type: in vivo
Settings: 11 nmoles intracerebroventricularly 1 hour post ischemia; CA1 counts at 7 days

Structure (SMILES) | neuronal cell death in global cerebral ischemia
CC[C@@H](C)[C@@H](NC(=O)[C@@H](CCC(=O)O)NC(=O)[C@@H](CO)NC(=O)[C@@H](CO)NC(=O)[C@@H](CO)NC(=O)[C@@H](CCCCN)NC(=O)[C@@H](CCCNC(=N)N)NC(=O)[C@@H](CCC(=O)O)NC(=O)[C@H](N)CCCNC(=N)N)C(=O)NCC(=O)NCC(=O)N[C@H](CO)C(=O)N[C@H](CCCNC(=N)N)C(=O)N[C@@H](C(=O)N[C@H](CO)C(=O)N[C@H](CCC(N)=O)C(=O)N[C@H](Cc1ccc(O)cc1)C(=O)N[C@H](C)C(=O)NCC(=O)N[C@H](CCCNC(=N)N)C(=O)N[C@H](CCCNC(=N)N)C(=O)N[C@H](CCCNC(=N)N)C(=O)N[C@H](CCC(N)=O)C(=O)N[C@H](CCCNC(=N)N)C(=O)N[C@H](CCCNC(=N)N)C(=O)N[C@H](CCCCN)C(=O)N[C@H](CCCCN)C(=O)N[C@H](CCCNC(=N)N)C(=O)NCC(=O)O)[C@H](C)CC [PYC35D-TAT] (H-[dR][dE][dR][dK][dS][dS][dS][dE][dI]GG[dS][dR][dI][dS][dQ][dY][dA]G[dR][dR][dR][dQ][dR][dR][dK][dK][dR]G-OH; N-terminus and C-terminus assumed) | blocked neuronal cell death
CC[C@@H](C)[C@@H](NC(=O)[C@@H](CCCCN)NC(=O)[C@H]1CCCN1)C(=O)N[C@H](CO)C(=O)N[C@H](CCC(N)=O)C(=O)N[C@H](Cc1ccc(O)cc1)C(=O)NCC(=O)N[C@H](CCC(N)=O)C(=O)N[C@H](CCCNC(=N)N)C(=O)N[C@H](CCCNC(=N)N)C(=O)N[C@H](CCCNC(=N)N)C(=O)NCC(=O)N[C@H](CCC(N)=O)C(=O)N[C@H](CC(C)C)C(=O)NCC(=O)NCC(=O)N[C@H](CCCNC(=N)N)C(=O)N[C@H](CCCNC(=N)N)C(=O)N[C@H](CCCNC(=N)N)C(=O)N[C@H](CCC(N)=O)C(=O)N[C@H](CCCNC(=N)N)C(=O)N[C@H](CCCNC(=N)N)C(=O)N[C@H](CCCCN)C(=O)N[C@H](CCCCN)C(=O)N[C@H](CCCNC(=N)N)C(=O)NCC(=O)O [PYC36D-TAT] (H-[dP][dK][dI][dS][dQ][dY]G[dQ][dR][dR][dR]G[dQ][dL]GG[dR][dR][dR][dQ][dR][dR][dK][dK][dR]G-OH; N-terminus and C-terminus assumed) | blocked neuronal cell death
